Data published in paper PMC8571378, “Reversion analysis reveals the in vivo immunogenicity of a poorly MHC I-binding cancer neoepitope” (Nature Communications, 2021).

Tested on: MHC I
Assay: Targeted MS (PRM) detection of peptides eluted from MHC I of peptide-pulsed BMDCs
Design: species or system mouse (BALB/cJ BMDCs)
[1] = BMDCs pulsed with 18-mer Ccdc85c^MUT, heavy labeled spike-in, PRM

Row | Sequence | detection by targeted MS among MHC I-eluted peptides [1] | detection by targeted MS among MHC I-eluted peptides (BMDCs pulsed with 18-mer Alms1^MUT)
1 | YIRPFETKVK | presence | –
2 | LYLDSKSDTTV | – | identified among the peptides eluted from MHC I molecules
3 | TYIRPFETKVK | presence | –
